Laboratory results taken from PubChem BioAssay AID493014 (National Center for Advancing Translational Sciences (NCATS), 2011).
Among all 340,000 compounds or so, about 170 (0.05%) were called active. The inconclusive results got no clear call from the source; some entries with a clear call stand among them for comparison. Calls come from the whole dose curve; as a rule, active = well fitted inhibition curve with a large enough effect in the signal ratio, with a control signal flat (not every such curve was filed as active); inconclusive = small, poorly fitted or top-dose-only effect, or effect the other way, or a change in a side signal; inactive = flat fitted curve, though single readings scatter; the % refers to the signal ratio. Potencies of inconclusive entries are doubtful fits and often do not repeat.

test: qHTS Assay to Find Inhibitors of Chronic Active B-Cell Receptor Signaling; settings: ABC-DLBCL IkBa-CBG/CBR reporter, luminescence ratio (green luciferase fused to IkBa over red control in TMD8 lymphoma cells), 4 h; activity change, negative = inhibition: at 46.1 µM (top of the series);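 for activity change, negative = inhibition: plate controls were basal doxycycline-induced cells for no effect and cells given 10 µM MG132 for full effect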
Outline: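 TMD8 ABC-DLBCL cells carrying doxycycline-inducible green luciferase fused to IkappaBalpha plus unfused red luciferase were exposed to compounds (up to 46 uM) for 4 hrs at 37C. Activity came from the overlap-corrected green/red luminescence ratio.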
Potency is the fitted concentration of half-maximal effect.

Row | Compound | Potency | activity change, negative = inhibition
1 | O=C(Nc1ccccc1)O[C@@H]1C[C@H]2CCC(=O)N3CC[C@@H](C1)[C@@H]23 | inconclusive: 10 µM [falling, partial curve, poor fit] | –
2 | O=C(c1ccc(F)cc1)n1ccc(-c2cnc(-c3ccccc3)s2)n1 | – | inconclusive: -29.2%
3 | O=C(NCc1ccco1)C1CC(c2ccccc2O)=NO1 (stereo not given) | inconclusive: 35.5 µM [rising, single point] | –
4 | Cc1ccccc1-c1nnc(SCC(=O)Nc2cccnc2Cl)o1 | – | inactive: -3.55%
5 | O=C1CCC(=O)N(O)CCCCCNC(=O)CCC(=O)N(O)CCCCCNC(=O)CCC(=O)N(O)CCCCCN1 | – | inconclusive: -32.9%
6 | CC(=O)N1CCN(C2c3cccc4cccc(c34)C2NS(=O)(=O)c2ccccc2)CC1 (stereo not given) | – | inactive: -5.61%
7 | CCC(CO)Oc1cc(NCc2ccc(C(F)(F)F)cc2)c2ncn(C(C)C)c2c1 (stereo not given) | – | inactive: -0.737%
8 | COC(=O)C1C(C(=O)OC)C1(c1ccccc1)c1ccccc1 (stereo not given) | – | inconclusive: -126%
9 | CCc1nnc(NC(=O)CCC(=O)N2CCN(C3c4ccccc4-c4ccccc43)CC2)s1 | – | inconclusive: -0.703%
10 | Cc1nnc(SC(C)C(=O)NCC2CCCO2)s1 (stereo not given) | – | inconclusive: 1.97%
11 | Cc1cccc(N=C2NC(=O)/C(=C/c3cccnc3)S2)c1C | inconclusive: 12.6 µM [falling, partial curve] | –
12 | Cn1c(=O)c(C(=O)Nc2ccccn2)c(O)c2ccccc21 | inconclusive: 25.1 µM [falling, partial curve, poor fit] | –
13 | Cc1cc(C(C)(C)C)oc1C(=O)N(CC(=O)NC1CCCC1)c1c(C)cccc1C | – | inconclusive: -0.348%
14 | CCc1ccc(-c2cc(C(=O)NN3CCOCC3)c3ccccc3n2)s1 | – | inconclusive: 4.85%
15 | C/C(=N\NC(=S)NCCc1ccccc1)c1ccc(C#N)cc1 | – | inactive: 0.393%
16 | O=C(COc1ccc([N+](=O)[O-])cc1)N1CCc2ccccc2C1 | – | inconclusive: 10.1%
17 | CC(C)Oc1ccc(C2CC(=O)N(Nc3ccc([N+](=O)[O-])cc3[N+](=O)[O-])C2=O)cc1 (stereo not given) | inconclusive: 5.01 µM [falling, partial curve, poor fit] | –
18 | OCCCNc1nc(-c2ccc(Cl)cc2)nnc1-c1ccc(Br)cc1 | inconclusive: 16.4 µM [falling, partial curve] | –
19 | O=C(O)c1ccc(-c2nc3scc(-c4ccccc4)c3c(=O)[nH]2)cc1 | inconclusive: 2.24 µM [falling, full curve] | –
20 | Cc1ccc(C(C)C)c(OCc2nn(CC(=O)c3ccc(OC(F)F)cc3)c3[n+]2CCCCC3)c1 | – | inconclusive: 4.18%

Two successive compounds already listed:
Row | Compound | Potency | activity change, negative = inhibition
7 | CCC(CO)Oc1cc(NCc2ccc(C(F)(F)F)cc2)c2ncn(C(C)C)c2c1 (stereo not given) | – | inactive: -0.737%
8 | COC(=O)C1C(C(=O)OC)C1(c1ccccc1)c1ccccc1 (stereo not given) | – | inconclusive: -126%
